The other results are listed elsewhere or left out. Further columns of the screen follow, without active or inactive calls. Most of these compounds were active or inconclusive in the main read-out, so they are no random draw. Potencies come from curve fits of mixed quality, noted in brackets.
Experiment: qHTS Assay for Lipid Storage Modulators in Drosophila S3 Cells;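 on cell number change: cells counted by Cell Tracker Red CMTPX staining in the red channel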
Conditions: BODIPY lipid droplet fluorescence, 18-24 h; for cell number change: measured here: cell count max response, cells fed with added oleic acid
Summary of the method: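 Drosophila S3 cells got compounds at several concentrations plus oleic acid (400 uM solution). Laser-scanning cytometry with 488 nm excitation read lipid droplets at 500-530 nm and cells at 575-640 nm. Percent activity was relative to 20 uM Triacsin C.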

[1] = measured here: lipid fluorescence (Fed channel) AC50, cells fed with added oleic acid
[2] = measured here: cell number channel AC50, cells fed with added oleic acid

| SMILES | cell number change [%] | AC50 [1] | AC50 [2] |
| --- | --- | --- | --- |
| COc1ccc(S(=O)(=O)N2CCC(C(=O)NCCN3CCOCC3)CC2)cc1 | -28.1 | 18.4 µM [falling, single point] | – |
| CC(=O)c1c(C)[nH]c(C(=O)CSc2nc3ccc(C)cc3[nH]2)c1C | – | 6.51 µM [rising, single point] | 3.26 µM [rising, partial curve, poor fit] |
| N/C(Cn1cncn1)=N\OC(=O)c1ccc(Cl)cc1Cl | -27.2 | 18.4 µM [falling, single point] | – |
| CCCOc1ccc(NC(=O)C2CC(=O)N/C(=N/N=C(C)/C=C/c3ccc(N(C)C)cc3)S2)cc1 (configuration not stated) | -13.5 | 2.59 µM [falling, partial curve] | – |
| O=C(COC(=O)COc1cccc(C(F)(F)F)c1)NC(=O)NC1CCCCC1 | -41.9 | 29.1 µM [falling, single point] | 29.1 µM [falling, single point] |
| CCc1ccc(NS(=O)(=O)c2ccc3[nH]cc(C(=O)N4CCCCC4)c(=O)c3c2)cc1 | – | 0.0259 µM [falling, full curve] | – |
| CC(c1cccnc1)N(C(=O)Nc1ccccc1)C1CCCCC1 (configuration not stated) | 20.4 | 29.1 µM [rising, single point] | – |
| CCOc1cc(CNCCCN2CCOCC2)cc(Cl)c1OCC(=O)NC(C)(C)C | 2.76 | 0.103 µM [rising, full curve, poor fit] | – |
| Cc1cc(Br)ccc1OCCN1CCCC1 | 10.2 | 13 µM [rising, partial curve] | – |
| COC(=O)C(C)N(C#N)c1nc(C)cc(C)n1 (configuration not stated) | -17.3 | 0.731 µM [falling, single point] | – |
| O=C(COC(=O)c1ccc[nH]c1=O)NCC12CC3CC(CC(C3)C1)C2 | -8.9 | – | – |
| O=C1C2C3c4ccccc4C(Br)(c4ccccc43)C2C(=O)N1c1ccccc1O (configuration not stated) | -35.3 | – | 29.1 µM [falling, single point] |
| Cc1ccc(C2C3=C(CCCC3=O)Nc3[nH]c(=S)[nH]c(=O)c32)cc1 (configuration not stated) | 0.667 | 6.51 µM [falling, single point] | 7.31 µM [falling, partial curve, poor fit] |
| O=C(C1CCCN(Cc2ccccc2F)C1)N1CCCC1 (configuration not stated) | 6.45 | 16.4 µM [rising, single point] | – |
| Cc1ccc(N=C(N(C)C)P(=O)(N(C)C)N(C)C)c(C)c1 | -42.4 | – | 0.0291 µM [falling, full curve, poor fit] |
| O=C(Nc1ccccc1)N1CCC(C(=O)N2CCN(S(=O)(=O)c3cccc(F)c3)CC2)CC1 | 8.99 | 0.731 µM [rising, full curve] | – |

A few values from above.
In AC50 [2], CC(=O)c1c(C)[nH]c(C(=O)CSc2nc3ccc(C)cc3[nH]2)c1C shows 3.26 µM [rising, partial curve, poor fit]
In AC50 [1], COC(=O)C(C)N(C#N)c1nc(C)cc(C)n1 (configuration not stated) shows 0.731 µM [falling, single point]

Reference: PubChem BioAssay AID2685 (National Center for Advancing Translational Sciences (NCATS), 2010)
